Experimental data from article PMC8693076.
No constants are given. Whether binding was seen depends on the method and setting. In cells and extracts the contact can be indirect. Some results given as binding are weak or reduced against the parent protein; the word gives no strength. For some assays here: Tags and fused reporters may be left off the sequences shown. Values belong to the molecule of their own block, whether it stands above or below them.

Amino acid sequences for entries named in this document (tags omitted).
UniProt Q9GZV5: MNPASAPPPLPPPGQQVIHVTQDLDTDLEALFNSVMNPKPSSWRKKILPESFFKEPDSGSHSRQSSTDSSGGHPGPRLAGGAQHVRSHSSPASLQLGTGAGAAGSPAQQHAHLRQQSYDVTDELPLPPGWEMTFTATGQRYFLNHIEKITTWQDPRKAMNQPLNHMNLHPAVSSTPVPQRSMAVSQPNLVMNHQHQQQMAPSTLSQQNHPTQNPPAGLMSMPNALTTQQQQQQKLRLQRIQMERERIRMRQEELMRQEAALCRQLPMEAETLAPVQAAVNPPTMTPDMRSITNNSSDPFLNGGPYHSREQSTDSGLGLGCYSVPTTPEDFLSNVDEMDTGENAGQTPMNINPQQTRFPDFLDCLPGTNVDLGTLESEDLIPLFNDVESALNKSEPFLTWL
UniProt P46937: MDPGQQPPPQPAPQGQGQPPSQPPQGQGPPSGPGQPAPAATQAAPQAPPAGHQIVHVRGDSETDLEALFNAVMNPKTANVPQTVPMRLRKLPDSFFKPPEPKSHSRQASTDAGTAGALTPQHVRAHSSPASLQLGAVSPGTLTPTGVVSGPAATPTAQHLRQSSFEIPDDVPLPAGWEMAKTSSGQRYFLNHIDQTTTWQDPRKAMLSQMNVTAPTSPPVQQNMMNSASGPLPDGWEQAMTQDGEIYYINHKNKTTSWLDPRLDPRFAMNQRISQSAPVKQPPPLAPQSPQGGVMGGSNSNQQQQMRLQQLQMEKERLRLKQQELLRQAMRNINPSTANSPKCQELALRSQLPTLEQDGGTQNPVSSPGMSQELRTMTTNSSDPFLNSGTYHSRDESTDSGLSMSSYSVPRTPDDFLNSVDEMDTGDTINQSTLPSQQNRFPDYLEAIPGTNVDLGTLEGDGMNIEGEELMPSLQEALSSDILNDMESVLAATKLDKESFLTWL

Key:
[1] = molecular target: T1, Flag‐HA‐tagged NONO (human) (UniProt Q15233); experiment: co-IP; HEK293T cells transfected with tagged proteins; lysed in RIPA buffer (with or without SDS), benzonase; anti-FLAG M2 affinity gel 4 °C 2 h; eluted with 3xFLAG peptide; western blot
T1 sequence: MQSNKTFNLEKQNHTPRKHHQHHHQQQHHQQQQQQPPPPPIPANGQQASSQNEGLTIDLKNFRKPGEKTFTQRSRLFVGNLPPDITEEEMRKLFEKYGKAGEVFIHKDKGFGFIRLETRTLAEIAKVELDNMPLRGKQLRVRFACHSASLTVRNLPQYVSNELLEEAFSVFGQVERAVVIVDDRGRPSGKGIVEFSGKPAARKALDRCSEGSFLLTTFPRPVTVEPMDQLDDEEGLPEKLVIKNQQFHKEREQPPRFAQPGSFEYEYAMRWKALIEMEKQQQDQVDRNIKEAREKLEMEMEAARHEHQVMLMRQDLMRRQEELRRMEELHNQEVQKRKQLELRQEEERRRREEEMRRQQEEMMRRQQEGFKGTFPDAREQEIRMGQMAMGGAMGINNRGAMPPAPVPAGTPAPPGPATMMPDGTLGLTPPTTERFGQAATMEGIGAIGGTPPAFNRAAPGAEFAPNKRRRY

[2] = molecular target: Flag‐HA‐tagged TAZ (UniProt Q9GZV5); experiment: as above
[3] = molecular target: recombinant TAZ, precipitated by a Flag antibody (HEK293T, Figure 1B) (UniProt Q9GZV5); experiment: co-IP; Figure S1B; told only in the results after the immunoprecipitations of Figure 1B; cells, bait and tags not shown
[4] = molecular target: recombinant TAZ, precipitated by a Flag antibody (HEK293T, Figure 1B) (UniProt Q9GZV5); experiment: co-IP; HEK293T cells transfected with tagged proteins; lysed in RIPA buffer (with or without SDS), benzonase; anti-FLAG M2 affinity gel 4 °C 2 h; eluted with 3xFLAG peptide; western blot
[5] = molecular target: Flag‐tagged TAZ (LN229, stably transduced) (UniProt Q9GZV5); experiment: co-IP; LN229 cells stably transduced with Flag-tagged TAZ, seeded on Petri dishes for indicated hours; anti-FLAG M2 affinity gel; western blot; NONO-depleted cells compared
[6] = molecular target: TAZ (endogenous, LN229) (human (endogenous in LN229)) (UniProt Q9GZV5); experiment: proximity ligation; Duolink II; LN229 cells on coverslips for indicated hours, endogenous proteins, primary antibodies against the two proteins; shRNA, CRISPR knock-out controls
[7] = molecular target: TAZ (endogenous, LN229) (human (endogenous in LN229)) (UniProt Q9GZV5); experiment: co-IP; endogenous proteins; LN229 cells seeded 2 h, RIPA buffer, benzonase; TAZ antibody (CST #4883), rabbit IgG control or TEAD antibody, protein A/G agarose; western blot; control and NONO knock-out cells compared

binding [1]: binds
Molecule: Myc‐tagged TAZ (from UniProt Q9GZV5 1-400)

binding [1]: binds
Molecule: yes‐associated protein (YAP) (from UniProt P46937 1-504)

binding [2]: binds
B1: Myc‐tagged NONO (protein, UniProt Q15233 1-471)
chain: MQSNKTFNLEKQNHTPRKHHQHHHQQQHHQQQQQQPPPPPIPANGQQASSQNEGLTIDLKNFRKPGEKTFTQRSRLFVGNLPPDITEEEMRKLFEKYGKAGEVFIHKDKGFGFIRLETRTLAEIAKVELDNMPLRGKQLRVRFACHSASLTVRNLPQYVSNELLEEAFSVFGQVERAVVIVDDRGRPSGKGIVEFSGKPAARKALDRCSEGSFLLTTFPRPVTVEPMDQLDDEEGLPEKLVIKNQQFHKEREQPPRFAQPGSFEYEYAMRWKALIEMEKQQQDQVDRNIKEAREKLEMEMEAARHEHQVMLMRQDLMRRQEELRRMEELHNQEVQKRKQLELRQEEERRRREEEMRRQQEEMMRRQQEGFKGTFPDAREQEIRMGQMAMGGAMGINNRGAMPPAPVPAGTPAPPGPATMMPDGTLGLTPPTTERFGQAATMEGIGAIGGTPPAFNRAAPGAEFAPNKRRRY

binding [3]: binds
binding [4]: binds
B2: NONO (HEK293T, Figure 1B) (protein, UniProt Q15233 1-471)
chain: MQSNKTFNLEKQNHTPRKHHQHHHQQQHHQQQQQQPPPPPIPANGQQASSQNEGLTIDLKNFRKPGEKTFTQRSRLFVGNLPPDITEEEMRKLFEKYGKAGEVFIHKDKGFGFIRLETRTLAEIAKVELDNMPLRGKQLRVRFACHSASLTVRNLPQYVSNELLEEAFSVFGQVERAVVIVDDRGRPSGKGIVEFSGKPAARKALDRCSEGSFLLTTFPRPVTVEPMDQLDDEEGLPEKLVIKNQQFHKEREQPPRFAQPGSFEYEYAMRWKALIEMEKQQQDQVDRNIKEAREKLEMEMEAARHEHQVMLMRQDLMRRQEELRRMEELHNQEVQKRKQLELRQEEERRRREEEMRRQQEEMMRRQQEGFKGTFPDAREQEIRMGQMAMGGAMGINNRGAMPPAPVPAGTPAPPGPATMMPDGTLGLTPPTTERFGQAATMEGIGAIGGTPPAFNRAAPGAEFAPNKRRRY

binding [5]: binds
binding [6]: binds
binding [7]: binds
B3: Non‐POU domain‐containing octamer‐binding protein (NONO), endogenous, LN229 (protein, UniProt Q15233 1-471)
chain: MQSNKTFNLEKQNHTPRKHHQHHHQQQHHQQQQQQPPPPPIPANGQQASSQNEGLTIDLKNFRKPGEKTFTQRSRLFVGNLPPDITEEEMRKLFEKYGKAGEVFIHKDKGFGFIRLETRTLAEIAKVELDNMPLRGKQLRVRFACHSASLTVRNLPQYVSNELLEEAFSVFGQVERAVVIVDDRGRPSGKGIVEFSGKPAARKALDRCSEGSFLLTTFPRPVTVEPMDQLDDEEGLPEKLVIKNQQFHKEREQPPRFAQPGSFEYEYAMRWKALIEMEKQQQDQVDRNIKEAREKLEMEMEAARHEHQVMLMRQDLMRRQEELRRMEELHNQEVQKRKQLELRQEEERRRREEEMRRQQEEMMRRQQEGFKGTFPDAREQEIRMGQMAMGGAMGINNRGAMPPAPVPAGTPAPPGPATMMPDGTLGLTPPTTERFGQAATMEGIGAIGGTPPAFNRAAPGAEFAPNKRRRY
